Assay: general procedure: solution-phase peptide synthesis

Substance | step yield (late stage modification step) | step yield (coupling step)
H-Gly-Nle(α-Tn)-Nle(α-Tn)-Nle(α-Tn)-Gly-OtBu | 77% | –
Cbz-Gly-Nle(α-Tn)-Nle(α-Tn)-Nle(α-Tn)-Gly-OtBu | – | 80%
Fmoc-Nle(α-TF)-Nle(α-TF)-Nle(α-TF)-Gly-OtBu | – | 88%
Fmoc-Nle(α-Tn)-Nle(α-Tn)-Nle(α-Tn)-Gly-OtBu | – | 78%
